Results on 33 targets are retold here after the supplement of paper PMC10849652.

Sequences of proteins named here, by UniProt entry; tags and fusion partners are left off. A change or cut given only in a name is not applied to a line headed by its entry.
UniProt Q9UHD8: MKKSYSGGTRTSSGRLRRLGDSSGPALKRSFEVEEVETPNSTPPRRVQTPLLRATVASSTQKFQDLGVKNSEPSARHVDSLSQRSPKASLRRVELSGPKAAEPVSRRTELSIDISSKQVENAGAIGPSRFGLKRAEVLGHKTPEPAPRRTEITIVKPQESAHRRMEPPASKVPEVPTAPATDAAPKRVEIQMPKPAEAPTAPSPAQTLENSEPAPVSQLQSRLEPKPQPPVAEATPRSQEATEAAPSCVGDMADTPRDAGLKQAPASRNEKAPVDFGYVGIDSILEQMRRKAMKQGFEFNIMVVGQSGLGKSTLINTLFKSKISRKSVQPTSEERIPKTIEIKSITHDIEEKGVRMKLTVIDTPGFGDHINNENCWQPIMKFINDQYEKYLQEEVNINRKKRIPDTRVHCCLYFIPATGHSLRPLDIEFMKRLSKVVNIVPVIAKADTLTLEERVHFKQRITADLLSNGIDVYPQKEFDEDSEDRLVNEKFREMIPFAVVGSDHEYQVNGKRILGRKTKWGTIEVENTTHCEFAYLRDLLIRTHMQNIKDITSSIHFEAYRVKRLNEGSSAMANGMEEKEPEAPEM
UniProt Q9BQE4, whole entry, looked up: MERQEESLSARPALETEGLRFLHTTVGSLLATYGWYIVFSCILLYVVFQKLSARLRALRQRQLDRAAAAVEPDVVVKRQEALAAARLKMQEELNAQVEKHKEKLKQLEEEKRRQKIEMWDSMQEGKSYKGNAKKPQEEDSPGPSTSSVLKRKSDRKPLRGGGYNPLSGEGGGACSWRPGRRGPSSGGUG
UniProt Q13228: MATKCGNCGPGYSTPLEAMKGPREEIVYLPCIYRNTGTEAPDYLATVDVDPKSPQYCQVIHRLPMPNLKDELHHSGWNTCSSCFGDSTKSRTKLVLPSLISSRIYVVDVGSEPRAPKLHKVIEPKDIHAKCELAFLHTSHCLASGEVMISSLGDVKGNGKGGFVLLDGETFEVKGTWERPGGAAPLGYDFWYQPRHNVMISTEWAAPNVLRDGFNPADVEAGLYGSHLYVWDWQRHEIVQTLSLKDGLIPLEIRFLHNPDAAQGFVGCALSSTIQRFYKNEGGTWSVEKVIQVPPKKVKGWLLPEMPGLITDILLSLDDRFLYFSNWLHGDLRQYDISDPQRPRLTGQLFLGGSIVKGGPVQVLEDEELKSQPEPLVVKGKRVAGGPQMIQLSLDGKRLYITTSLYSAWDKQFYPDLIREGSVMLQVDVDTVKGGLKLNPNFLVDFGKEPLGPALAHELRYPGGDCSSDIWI
UniProt P53992: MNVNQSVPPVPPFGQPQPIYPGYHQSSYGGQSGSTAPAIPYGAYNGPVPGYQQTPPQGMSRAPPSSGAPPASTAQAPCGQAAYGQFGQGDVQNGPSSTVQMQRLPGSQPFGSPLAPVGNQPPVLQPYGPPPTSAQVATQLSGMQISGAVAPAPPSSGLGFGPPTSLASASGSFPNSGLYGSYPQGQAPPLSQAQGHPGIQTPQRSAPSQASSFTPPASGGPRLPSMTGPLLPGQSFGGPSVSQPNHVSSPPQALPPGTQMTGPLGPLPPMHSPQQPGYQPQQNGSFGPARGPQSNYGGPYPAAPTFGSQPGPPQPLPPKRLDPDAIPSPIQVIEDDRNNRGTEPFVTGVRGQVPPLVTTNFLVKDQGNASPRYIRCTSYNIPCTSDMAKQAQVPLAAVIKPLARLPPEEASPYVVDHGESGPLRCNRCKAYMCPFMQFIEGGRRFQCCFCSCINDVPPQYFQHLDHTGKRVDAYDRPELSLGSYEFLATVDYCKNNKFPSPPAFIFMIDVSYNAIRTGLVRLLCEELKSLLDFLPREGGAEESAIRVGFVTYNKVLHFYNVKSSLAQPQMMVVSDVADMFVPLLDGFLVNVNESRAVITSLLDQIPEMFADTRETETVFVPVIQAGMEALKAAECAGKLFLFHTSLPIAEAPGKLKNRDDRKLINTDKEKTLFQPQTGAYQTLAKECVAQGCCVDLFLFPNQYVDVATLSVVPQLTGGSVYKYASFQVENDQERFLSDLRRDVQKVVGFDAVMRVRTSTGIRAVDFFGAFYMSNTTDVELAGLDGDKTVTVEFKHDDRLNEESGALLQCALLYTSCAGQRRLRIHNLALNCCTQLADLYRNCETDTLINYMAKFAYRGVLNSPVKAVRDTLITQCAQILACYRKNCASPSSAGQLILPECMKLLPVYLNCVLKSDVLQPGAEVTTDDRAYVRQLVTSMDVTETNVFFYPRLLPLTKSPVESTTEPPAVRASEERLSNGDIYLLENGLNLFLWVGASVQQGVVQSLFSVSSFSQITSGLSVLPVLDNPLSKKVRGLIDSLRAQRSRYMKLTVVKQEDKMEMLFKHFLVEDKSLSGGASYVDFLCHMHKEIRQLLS
UniProt Q9UHR5: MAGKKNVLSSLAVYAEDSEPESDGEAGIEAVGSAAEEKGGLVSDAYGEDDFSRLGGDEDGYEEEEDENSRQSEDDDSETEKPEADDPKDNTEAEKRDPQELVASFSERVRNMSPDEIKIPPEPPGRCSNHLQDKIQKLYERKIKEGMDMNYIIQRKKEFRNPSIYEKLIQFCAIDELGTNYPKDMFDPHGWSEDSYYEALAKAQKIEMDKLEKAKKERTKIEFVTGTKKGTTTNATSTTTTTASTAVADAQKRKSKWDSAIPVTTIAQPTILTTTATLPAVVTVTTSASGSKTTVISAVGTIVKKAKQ
UniProt Q96ER3: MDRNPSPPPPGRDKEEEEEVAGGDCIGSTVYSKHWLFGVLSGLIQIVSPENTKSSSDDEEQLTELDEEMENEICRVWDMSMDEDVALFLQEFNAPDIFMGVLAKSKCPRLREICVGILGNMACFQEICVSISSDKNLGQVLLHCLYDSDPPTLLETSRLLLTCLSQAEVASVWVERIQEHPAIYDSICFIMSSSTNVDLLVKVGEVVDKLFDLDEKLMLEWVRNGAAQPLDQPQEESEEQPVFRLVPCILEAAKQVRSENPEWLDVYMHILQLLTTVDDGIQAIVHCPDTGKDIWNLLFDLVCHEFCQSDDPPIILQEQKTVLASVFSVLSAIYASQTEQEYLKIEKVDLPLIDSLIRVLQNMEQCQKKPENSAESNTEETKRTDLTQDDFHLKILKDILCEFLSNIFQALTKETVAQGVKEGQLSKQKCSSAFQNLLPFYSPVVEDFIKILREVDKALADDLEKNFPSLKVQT
UniProt Q9Y6B6: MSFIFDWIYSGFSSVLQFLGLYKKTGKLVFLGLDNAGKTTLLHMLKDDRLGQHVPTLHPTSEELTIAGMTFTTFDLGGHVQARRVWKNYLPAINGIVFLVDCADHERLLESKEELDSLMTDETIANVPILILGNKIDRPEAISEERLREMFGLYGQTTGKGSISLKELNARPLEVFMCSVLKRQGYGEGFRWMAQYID
UniProt Q86SQ7: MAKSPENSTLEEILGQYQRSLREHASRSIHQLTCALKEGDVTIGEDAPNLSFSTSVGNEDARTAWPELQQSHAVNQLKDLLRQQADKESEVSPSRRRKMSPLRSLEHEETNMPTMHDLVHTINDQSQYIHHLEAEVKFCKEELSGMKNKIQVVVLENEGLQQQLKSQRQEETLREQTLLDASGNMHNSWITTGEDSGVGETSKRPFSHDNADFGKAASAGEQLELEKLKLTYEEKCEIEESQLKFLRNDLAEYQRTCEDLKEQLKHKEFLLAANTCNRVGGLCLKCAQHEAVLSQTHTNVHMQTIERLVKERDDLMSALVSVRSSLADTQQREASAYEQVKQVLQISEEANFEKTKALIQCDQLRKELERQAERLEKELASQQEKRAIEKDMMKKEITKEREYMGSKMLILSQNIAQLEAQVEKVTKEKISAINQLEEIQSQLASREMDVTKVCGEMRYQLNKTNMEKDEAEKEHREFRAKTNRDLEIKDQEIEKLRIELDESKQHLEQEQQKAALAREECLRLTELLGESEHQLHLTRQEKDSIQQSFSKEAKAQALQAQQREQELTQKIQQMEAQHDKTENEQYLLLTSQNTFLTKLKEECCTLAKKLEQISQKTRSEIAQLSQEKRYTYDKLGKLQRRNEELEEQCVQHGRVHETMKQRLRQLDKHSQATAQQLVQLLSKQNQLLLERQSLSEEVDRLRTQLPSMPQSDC
UniProt O60613, whole entry, looked up: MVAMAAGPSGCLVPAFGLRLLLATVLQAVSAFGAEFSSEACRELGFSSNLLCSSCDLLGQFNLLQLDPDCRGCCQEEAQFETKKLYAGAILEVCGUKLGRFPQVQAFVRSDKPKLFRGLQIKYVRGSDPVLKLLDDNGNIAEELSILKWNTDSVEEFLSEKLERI
UniProt Q6UVJ0: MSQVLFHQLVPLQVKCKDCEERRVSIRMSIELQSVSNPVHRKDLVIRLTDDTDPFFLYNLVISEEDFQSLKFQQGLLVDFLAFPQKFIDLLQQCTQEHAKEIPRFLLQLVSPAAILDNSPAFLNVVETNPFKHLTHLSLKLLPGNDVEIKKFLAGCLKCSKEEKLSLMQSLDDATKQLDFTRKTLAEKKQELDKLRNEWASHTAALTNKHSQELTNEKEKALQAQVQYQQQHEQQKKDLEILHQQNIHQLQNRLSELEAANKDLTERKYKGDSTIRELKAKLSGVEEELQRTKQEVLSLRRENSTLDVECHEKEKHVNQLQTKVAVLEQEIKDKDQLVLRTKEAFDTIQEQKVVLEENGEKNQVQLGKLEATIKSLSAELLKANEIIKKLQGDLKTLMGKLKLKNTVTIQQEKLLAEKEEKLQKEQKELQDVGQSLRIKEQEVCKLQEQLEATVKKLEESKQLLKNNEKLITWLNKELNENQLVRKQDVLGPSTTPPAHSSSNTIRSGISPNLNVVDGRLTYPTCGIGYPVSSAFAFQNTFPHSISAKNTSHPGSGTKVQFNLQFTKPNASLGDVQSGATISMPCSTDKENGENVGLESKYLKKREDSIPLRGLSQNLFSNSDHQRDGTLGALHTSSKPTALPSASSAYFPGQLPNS
UniProt Q9NVA2: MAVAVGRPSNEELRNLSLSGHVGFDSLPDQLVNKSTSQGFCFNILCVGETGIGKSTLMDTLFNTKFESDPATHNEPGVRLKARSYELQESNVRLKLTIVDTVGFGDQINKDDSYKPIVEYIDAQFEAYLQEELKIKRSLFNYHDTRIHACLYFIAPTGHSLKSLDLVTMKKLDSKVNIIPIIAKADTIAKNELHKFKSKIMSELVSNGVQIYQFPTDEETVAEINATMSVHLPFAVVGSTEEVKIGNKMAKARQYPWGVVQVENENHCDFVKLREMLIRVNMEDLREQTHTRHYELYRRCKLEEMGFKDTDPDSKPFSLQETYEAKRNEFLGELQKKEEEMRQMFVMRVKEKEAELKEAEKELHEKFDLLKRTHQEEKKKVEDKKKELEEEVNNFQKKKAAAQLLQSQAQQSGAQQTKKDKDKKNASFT
UniProt Q8WTV0: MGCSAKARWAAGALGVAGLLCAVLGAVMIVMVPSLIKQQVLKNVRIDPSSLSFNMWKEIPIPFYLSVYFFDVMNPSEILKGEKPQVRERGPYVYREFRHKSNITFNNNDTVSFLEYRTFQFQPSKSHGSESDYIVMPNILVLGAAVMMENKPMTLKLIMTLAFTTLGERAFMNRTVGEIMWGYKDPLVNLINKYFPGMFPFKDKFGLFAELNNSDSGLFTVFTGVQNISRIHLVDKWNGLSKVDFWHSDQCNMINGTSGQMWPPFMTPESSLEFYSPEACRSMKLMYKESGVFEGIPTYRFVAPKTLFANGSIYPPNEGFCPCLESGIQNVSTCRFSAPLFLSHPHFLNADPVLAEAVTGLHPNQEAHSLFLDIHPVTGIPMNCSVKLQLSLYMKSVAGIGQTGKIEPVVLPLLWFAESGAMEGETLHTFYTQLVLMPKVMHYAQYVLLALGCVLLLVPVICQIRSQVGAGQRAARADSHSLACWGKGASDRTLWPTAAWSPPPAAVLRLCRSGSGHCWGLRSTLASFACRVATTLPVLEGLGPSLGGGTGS
UniProt Q96HI0: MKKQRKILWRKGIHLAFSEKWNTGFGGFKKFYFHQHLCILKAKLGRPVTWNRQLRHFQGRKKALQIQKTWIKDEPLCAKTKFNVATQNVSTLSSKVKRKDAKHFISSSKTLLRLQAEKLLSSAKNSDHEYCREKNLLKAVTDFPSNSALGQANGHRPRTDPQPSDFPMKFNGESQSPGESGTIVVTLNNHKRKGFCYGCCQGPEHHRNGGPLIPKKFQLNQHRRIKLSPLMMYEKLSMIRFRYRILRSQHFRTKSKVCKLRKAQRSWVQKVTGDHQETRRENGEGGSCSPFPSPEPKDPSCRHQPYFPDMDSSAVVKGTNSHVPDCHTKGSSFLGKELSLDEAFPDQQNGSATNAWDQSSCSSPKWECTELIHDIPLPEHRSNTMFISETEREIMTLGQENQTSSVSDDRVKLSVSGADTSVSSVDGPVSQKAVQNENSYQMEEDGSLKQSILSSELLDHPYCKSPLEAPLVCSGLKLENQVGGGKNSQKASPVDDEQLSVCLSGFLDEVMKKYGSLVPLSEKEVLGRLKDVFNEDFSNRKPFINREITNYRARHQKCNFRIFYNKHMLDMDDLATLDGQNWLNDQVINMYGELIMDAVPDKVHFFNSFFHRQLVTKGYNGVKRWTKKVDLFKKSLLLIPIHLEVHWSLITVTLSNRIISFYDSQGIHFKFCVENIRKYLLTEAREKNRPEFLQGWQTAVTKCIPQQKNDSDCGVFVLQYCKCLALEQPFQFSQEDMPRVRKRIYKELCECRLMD

The other results are listed elsewhere or left out.

Compound in one experiment: C1COCCN1CCN2C3=CC=CC=C3N=C2NC(=O)C4=CC(=CC=C4)[N+](=O)[O-] [IRAK-1-4 Inhibitor I]
The experiment can be described thus: log2 fold change, soluble protein after heating vs DMSO (PISA); higher = thermal stabilisation; K562 lysate, 10 uM; active = over 0.2 and 3.5 SD of the protein, either way, in both replicates (recomputed). The gist of the method: (§1)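 To prepare the extract, K562 pellets were dounce-homogenised in PBS pH 7.4 with 1 mM MgCl2, giving crude material at 1 mg/mL protein. This was treated with 10 μM compound for 30 min, then heated in aliquots for 3 min over 48°C-58°C before pooling and addition of NP-40 to 0.5% at 4°C. Centrifugation at 21,000xg for 90 min left soluble protein in the supernatant, which TMTpro 16plex LC-MS/MS quantified with equalised channel sums. Results are log-two fold changes in thermal stability compared with solvent controls, from duplicates.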
Consider SCRIB (UniProt Q14160), for which the log2 fold change is inactive: -0.022.
As to SEC23A (UniProt Q15436), the log2 fold change was inactive: 0.
On the same count and under the same terms, in the case of SEPTIN9 (UniProt Q9UHD8) it was inactive: 0.005; in that of SEMA4B (UniProt Q9NPR2), inactive: -0.012.
With SDF4 (UniProt Q9BRK5), the log2 fold change was inactive: -0.002.
Same read-out and setting: in the case of SELENOS (UniProt Q9BQE4) it was inactive: 0.017; in that of SCFD1 (UniProt Q8WVM8), inactive: 0.
The same measure, in the same setting: in the case of SEC24D isoform 2 (UniProt O94855) it was inactive: -0.002; in that of SELENBP1 isoform 4 (UniProt Q13228), inactive: 0.014; in that of SEC61A1 (UniProt P61619), inactive: 0.011.
Still for that read-out and setting: in the case of SEC24C (UniProt P53992) it was inactive: 0.006.
Take SAP30BP (UniProt Q9UHR5): the log2 fold change was inactive: -0.016.
Still for that read-out and setting: in the case of SCRN3 (UniProt Q0VDG4) it was inactive: -0.003; in that of SDSL (UniProt Q96GA7), inactive: -0.032.
Turning to SEC63 (UniProt Q9UGP8), the log2 fold change was inactive: 0.024.
Still for that read-out and setting: for SARG (UniProt Q9BW04) the value was inactive: 0.002.
The same measure, in the same setting: for SAAL1 (UniProt Q96ER3) the value was inactive: -0.028.
Still for that read-out and setting: in the case of SAR1B (UniProt Q9Y6B6) it was inactive: 0.041; in that of SAMSN1 (UniProt Q9NSI8), inactive: 0.01.
For SDCCAG8 (UniProt Q86SQ7), the log2 fold change is inactive: 0.058.
The same measure, in the same setting: in the case of SCYL1 (UniProt Q96KG9) it was inactive: -0.016; in that of SDAD1 (UniProt Q9NVU7), inactive: -0.022; in that of SEPTIN2 isoform 2 (UniProt Q15019), inactive: 0.013.
The same measure, in the same setting: in the case of SCAMP3 isoform 2 (UniProt O14828) it was inactive: 0.023; in that of SELENOF (UniProt O60613), inactive: -0.016.
SASS6 (UniProt Q6UVJ0): the log2 fold change is inactive: -0.021.
On the same count and under the same terms, for SCFD2 (UniProt Q8WU76) the value was inactive: -0.001; for SEPTIN11 isoform 2 (UniProt Q9NVA2), inactive: 0.014; for SCLT1 (UniProt Q96NL6), inactive: 0.019.
Still for that read-out and setting: for SCARB1 isoform 2 (UniProt Q8WTV0) the value was inactive: 0.044; for SENP5 (UniProt Q96HI0), inactive: 0.018; for SDHB (UniProt P21912), inactive: 0.001.
Same read-out and setting: for SCML2 (UniProt Q9UQR0) the value was inactive: -0.01.

Compound in another experiment: C=CC(=O)N1CCC[C@@H](n2nc(-c3ccc(Oc4ccccc4)cc3)c3c(N)ncnc32)C1 [ibrutinib]
Described as above. Summed up: as §1
For SCRIB (UniProt Q14160), the log2 fold change was inactive: 0.043.
The same measure, in the same setting: for SEC23A (UniProt Q15436) the value was inactive: 0.026; for SEPTIN9 (UniProt Q9UHD8), inactive: 0.027.
Still for that read-out and setting: for SEMA4B (UniProt Q9NPR2) the value was inactive: 0.097; for SDF4 (UniProt Q9BRK5), inactive: 0.002; for SELENOS (UniProt Q9BQE4), inactive: 0.071.
As for SCFD1 (UniProt Q8WVM8), the log2 fold change was inactive: 0.006.
Still for that read-out and setting: for SEC24D isoform 2 (UniProt O94855) the value was inactive: 0.005; for SELENBP1 isoform 4 (UniProt Q13228), inactive: 0.01; for SEC61A1 (UniProt P61619), inactive: -0.03.
The same measure, in the same setting: in the case of SEC24C (UniProt P53992) it was inactive: -0.004.
With SAP30BP (UniProt Q9UHR5), the log2 fold change is inactive: -0.01.
Same read-out and setting: for SCRN3 (UniProt Q0VDG4) the value was inactive: -0.011; for SDSL (UniProt Q96GA7), inactive: 0.048; for SEC63 (UniProt Q9UGP8), inactive: 0.018.
For SARG (UniProt Q9BW04), the log2 fold change was inactive: 0.016.
With SAAL1 (UniProt Q96ER3), the log2 fold change was inactive: 0.057.
On the same count and under the same terms, for SAR1B (UniProt Q9Y6B6) the value was inactive: 0.02; for SAMSN1 (UniProt Q9NSI8), inactive: 0.005; for SDCCAG8 (UniProt Q86SQ7), inactive: 0.035.
On the same count and under the same terms, in the case of SCYL1 (UniProt Q96KG9) it was inactive: 0.01.
Still for that read-out and setting: for SDAD1 (UniProt Q9NVU7) the value was inactive: 0.021; for SEPTIN2 isoform 2 (UniProt Q15019), inactive: -0.014.
Regarding SCAMP3 isoform 2 (UniProt O14828), the log2 fold change was inactive: -0.086.
Still for that read-out and setting: for SELENOF (UniProt O60613) the value was inactive: 0.009.
With SASS6 (UniProt Q6UVJ0), the log2 fold change was inactive: -0.006.
For SCFD2 (UniProt Q8WU76), the log2 fold change is inactive: -0.037.
On the same count and under the same terms, for SEPTIN11 isoform 2 (UniProt Q9NVA2) the value was inactive: 0.023; for SCLT1 (UniProt Q96NL6), inactive: 0.04.
Consider SCARB1 isoform 2 (UniProt Q8WTV0), for which the log2 fold change was inactive: 0.035.
The same measure, in the same setting: for SENP5 (UniProt Q96HI0) the value was inactive: 0.008.
Still for that read-out and setting: for SDHB (UniProt P21912) the value was inactive: 0.008; for SCML2 (UniProt Q9UQR0), inactive: -0.011.

Compound in a further experiment: CC(=O)c1cnc2ccc(-c3cc(Cl)c(O)c(Cl)c3)nc2c1N[C@H]1CC[C@H](CN(C)C)CC1
The description is as above. Summed up:
as §1
Take SCRIB (UniProt Q14160): the log2 fold change was inactive: 0.023.
Turning to SEC23A (UniProt Q15436), the log2 fold change was inactive: -0.023.
On the same count and under the same terms, in the case of SEPTIN9 (UniProt Q9UHD8) it was inactive: -0.011.
On the same count and under the same terms, in the case of SEMA4B (UniProt Q9NPR2) it was inactive: -0.054; in that of SDF4 (UniProt Q9BRK5), inactive: 0.014.
The same measure, in the same setting: in the case of SELENOS (UniProt Q9BQE4) it was inactive: -0.001; in that of SCFD1 (UniProt Q8WVM8), inactive: 0.007; in that of SEC24D isoform 2 (UniProt O94855), inactive: -0.024.
For SELENBP1 isoform 4 (UniProt Q13228), the log2 fold change is inactive: 0.007.
Same read-out and setting: in the case of SEC61A1 (UniProt P61619) it was inactive: -0.044; in that of SEC24C (UniProt P53992), inactive: -0.018; in that of SAP30BP (UniProt Q9UHR5), inactive: -0.011.
The same measure, in the same setting: in the case of SCRN3 (UniProt Q0VDG4) it was inactive: -0.001.
On the same count and under the same terms, in the case of SDSL (UniProt Q96GA7) it was inactive: -0.018; in that of SEC63 (UniProt Q9UGP8), inactive: 0.023; in that of SARG (UniProt Q9BW04), inactive: -0.005.
As to SAAL1 (UniProt Q96ER3), the log2 fold change is inactive: 0.024.
For the target SAR1B (UniProt Q9Y6B6), the log2 fold change is inactive: -0.094.
Still for that read-out and setting: in the case of SAMSN1 (UniProt Q9NSI8) it was inactive: 0.011; in that of SDCCAG8 (UniProt Q86SQ7), inactive: 0.105; in that of SCYL1 (UniProt Q96KG9), inactive: -0.042.
Consider SDAD1 (UniProt Q9NVU7), for which the log2 fold change was inactive: -0.013.
On to SEPTIN2 isoform 2 (UniProt Q15019), for which the log2 fold change was inactive: -0.002.
SCAMP3 isoform 2 (UniProt O14828): the log2 fold change was inactive: 0.108.
Same read-out and setting: for SELENOF (UniProt O60613) the value was inactive: -0.027.
SASS6 (UniProt Q6UVJ0): the log2 fold change was inactive: 0.023.
On the same count and under the same terms, in the case of SCFD2 (UniProt Q8WU76) it was inactive: -0.009; in that of SEPTIN11 isoform 2 (UniProt Q9NVA2), inactive: 0.008.
Still for that read-out and setting: for SCLT1 (UniProt Q96NL6) the value was inactive: 0.067.
On the same count and under the same terms, in the case of SCARB1 isoform 2 (UniProt Q8WTV0) it was inactive: -0.005; in that of SENP5 (UniProt Q96HI0), inactive: 0.02; in that of SDHB (UniProt P21912), inactive: -0.008.
On to SCML2 (UniProt Q9UQR0), for which the log2 fold change is inactive: 0.028.
